No constants are given. Whether binding was seen depends on the method and setting. Some entries that bind do so weakly or less than the wild type.
T1: Epithelial cell adhesion molecule (EpCAM) (human) (UniProt P16422)
T1 sequence (looked up): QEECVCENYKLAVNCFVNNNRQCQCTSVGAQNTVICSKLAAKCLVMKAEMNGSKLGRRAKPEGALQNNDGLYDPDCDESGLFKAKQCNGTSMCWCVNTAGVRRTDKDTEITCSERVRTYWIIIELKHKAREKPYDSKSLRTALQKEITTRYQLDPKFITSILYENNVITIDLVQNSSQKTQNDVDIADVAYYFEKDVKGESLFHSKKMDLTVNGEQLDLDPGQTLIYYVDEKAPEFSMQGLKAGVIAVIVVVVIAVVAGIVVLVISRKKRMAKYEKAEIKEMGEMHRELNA


Key:
[1] = molecular target: T1, Epithelial cell adhesion molecule (EpCAM) (human); assay: confocal microscopy, siRNA knockdown of EpCAM in Hep3B cells
[2] = molecular target: T1, Epithelial cell adhesion molecule (EpCAM) (human); assay: immunofluorescence on human HCC specimens ex vivo
[3] = molecular target: T1, Epithelial cell adhesion molecule (EpCAM) (human); assay: immunofluorescence on lung sections of the human HCC PDX model
[4] = molecular target: T1, Epithelial cell adhesion molecule (EpCAM) (human); assay: co-localization by confocal microscopy on Hep3B cells
[5] = molecular target: T1, Epithelial cell adhesion molecule (EpCAM) (human); assay: immunofluorescence on liver sections of the human HCC PDX model
[6] = molecular target: T1, Epithelial cell adhesion molecule (EpCAM) (human); assay: confocal microscopy on Hep3B cells
[7] = molecular target: T1, Epithelial cell adhesion molecule (EpCAM) (human); assay: immunofluorescence on sections of human HCC xenograft tumor in mouse liver
[8] = molecular target: T1, Epithelial cell adhesion molecule (EpCAM) (human); assay: competition against HPD*-IRDye800 on cells, 0-120 mM as printed
[9] = molecular target: T1, Epithelial cell adhesion molecule (EpCAM) (human); assay: competition against HPD*-IRDye800 on cells, fluorescence intensity

binding [1]	binding [2]	binding [3]	binding [4]	binding [5]	binding [6]	binding [7]	binding [8]	binding [9]	Binder
binds	binds	binds	binds	binds	binds	binds	–	–	HPDMFTRTHSHNGGGSC (IRDye800 attached via the C-terminal GGGSC linker) [HPD*-IRDye800]
–	–	–	–	–	–	–	binds	binds	HPDMFTRTHSHN [unlabeled HPD*]
